## Library screen at single concentrations

Chains of the proteins cited; added tags and fusions are not shown. Residues count along the entry.
UniProt Q8IDJ8, 1-583: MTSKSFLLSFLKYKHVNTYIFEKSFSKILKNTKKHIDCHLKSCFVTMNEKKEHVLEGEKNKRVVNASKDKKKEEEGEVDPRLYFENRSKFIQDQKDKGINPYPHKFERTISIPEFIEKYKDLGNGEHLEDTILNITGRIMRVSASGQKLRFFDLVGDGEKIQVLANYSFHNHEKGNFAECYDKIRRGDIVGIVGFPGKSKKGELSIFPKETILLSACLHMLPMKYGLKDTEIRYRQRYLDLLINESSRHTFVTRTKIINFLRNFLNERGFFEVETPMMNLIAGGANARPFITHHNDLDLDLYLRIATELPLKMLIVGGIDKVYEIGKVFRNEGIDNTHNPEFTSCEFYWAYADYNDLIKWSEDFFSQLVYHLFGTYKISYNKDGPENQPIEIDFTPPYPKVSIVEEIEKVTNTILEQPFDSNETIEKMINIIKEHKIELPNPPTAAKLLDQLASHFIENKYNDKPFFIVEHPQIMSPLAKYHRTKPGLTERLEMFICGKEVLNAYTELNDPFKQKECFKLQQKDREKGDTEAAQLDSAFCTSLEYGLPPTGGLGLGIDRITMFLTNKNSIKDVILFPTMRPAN

The values are deposited in ChEMBL (CHEMBL3988442, “University of Dundee, Small-Polar-MMV Screening Library” (2021)).

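Lysine-tRNA ligase, Plasmodium falciparum 3D7 (UniProt Q8IDJ8). Enzyme assay of the cytosolic lysyl-tRNA synthetase in 384-well plates, read by luminescence. Compounds at 30 µM. Higher reads as stronger inhibition, judged from the few compounds that gave an IC50. Of about 69,000 compounds tested this way, about 49 (0.071%) reached 50% or more in at least one test.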

Results are given as percent effect. The record does not define 0% and 100%; most values in the screen are far below 50% and negative numbers occur (in some assays of this library far below -100). This is an unselected part of the compounds tested. Two or more numbers in one place are separate tests of the same structure; such repeats can differ widely.

CCn1c(N)nc2cc(C(=O)N3CCN(c4nccs4)CC3)cnc21 gave 7.411%. O=C(NCCn1cccn1)c1nnc2ccccc2n1 gave -0.3014%. For Cn1cc(N2CCC3(CCN(C(=O)c4cccn4C)C3)C2=O)cn1 (centres undefined) the result was -1.381%. With CN1CCN(C(=O)c2n[nH]c3c2CN(C2CCOCC2)CC3)CC1 the screen gave -0.8508%.

With CN(CCCOc1ccc(F)cc1)S(=O)(=O)c1cnn(C)c1 the screen gave 4.069%. For COc1cc(OC)cc(-c2cc(N)on2)c1 the result was 2.629%. Fc1ccc(CN2CCC(F)(F)C3(CCN(c4cnccn4)C3)C2)cc1 (centres undefined) gave 1.226%. With Cc1nc(C)n(CC2CCCN2CC(=O)NCCC#N)n1 (centres undefined) the screen gave 5.331%.

COc1ncnc(N)c1CNCC(C)Oc1ccccc1Cl (centres undefined) gave 2.808%. CC(Cn1cccn1)NCc1ccc(Cl)s1 (centres undefined) read 0.2241%. Result for Cn1ccnc1C(=O)N[C@@H]1CN(Cc2ccoc2)[C@@H]2CCCO[C@@H]21 was 1.985%. CCN1C(=O)CC(c2cnn(C)c2)C12CCN(C(=O)C1CC=CC1)CC2 (centres undefined) read 3.12%.

Result for CCOC(=O)CCCN1CCCC(C(=O)Nc2ccc(Cl)cn2)C1 (centres undefined) was 0.5955%. Cc1nc(C)n(CC2CCCN2Cc2cn3ccccc3n2)n1 (centres undefined) gave 0.5298%. CS(=O)(=O)NC1CCCN(C(=O)NCc2cccnc2)C1 (centres undefined) gave 6.998%. Cc1cc2cccc(NC(=O)N3CCC(N(C)C)C3)c2o1 (centres undefined) gave 2.927%.

CC(C(=O)N1CCCN(Cc2ccc(C#N)cc2)CC1)n1cncn1 (centres undefined) read -1.529%. With COc1cccc(NC(=O)C(C)Cn2cc(Cl)cn2)c1 (centres undefined) the screen gave 6.143%. Result for O=C(c1nn[nH]c1Nc1ccc(Cl)cc1)N1CCSCC1 was 2.407%. For CCOCC1CN(Cc2ccoc2)Cc2nn(C)cc21 (centres undefined) the result was 5.291%.

Result for CCOCC1c2c(cnn2CC2CC2)CCN1Cc1nccs1 (centres undefined) was 1.203%. CN(CCc1ccccc1)c1cnn(CC(=O)N2CCSCC2)c(=O)c1 read -3.721%. O=C([C@H]1COC[C@H]2CN(CC3CC3)C[C@H]21)N1CCOCC1 read 7.062%. For COc1ccc([C@@H]2CN(C(=O)CCCc3cn[nH]c3)C[C@H]2N(C)C)cc1 the result was 6.069%.

Result for CCCN(CC1COc2ccccc2O1)C(=O)CCn1cncn1 (centres undefined) was 5.712%. COc1ccc(C(=O)NCC2CCCN(C3CCOCC3)C2)c(O)c1 (centres undefined) gave 5.336%. Result for COC(=O)COc1ccc(-c2noc(C3CCCO3)n2)cc1 (centres undefined) was 3.742%. Cc1nccn1-c1cc(CNC(=O)NCC2CCCO2)ccn1 (centres undefined) read 0.9657%.

For Cc1cc(CN2C[C@@H]3COC[C@]3(CNC(=O)N3CCCC3)C2)no1 the result was -1.44%. CN(CCS(=O)(=O)c1cc(Cl)ccc1Cl)CC(=O)Nc1ccc(F)cc1 read 5.926%. With O=C(Nc1cccc(CNCc2cccnc2)c1)C1CCCC1 the screen gave 0.9613%. Result for CN1CCOCC12CCN(C(=O)C1CCC1)CC2 was 2.954%.

Cc1cnn(C2CN(Cc3nnc(C4CC4)o3)C2)c1 gave 4.529%. With CC1=Nc2c(c(=O)[nH]n2C2CCCC2)C(c2cccnc2)S1 (centres undefined) the screen gave 7.147% & 3.668%. Result for Cn1ccnc1C1CCN(S(=O)(=O)c2ccc3c(c2)OCCO3)CC1 was -0.07349%. Result for Cn1cnnc1CCC(=O)N1CCCC(OCc2cccnc2)C1 (centres undefined) was 6.127%.

Result for O=C(N[C@@H]1CCN(C(=O)c2cc[nH]c2)C[C@H]1O)c1ccccn1 was -0.912%. With CC(C)(C)c1ccc(OCc2nc3c(c(=O)[nH]2)CCNC3)cc1 the screen gave 3.945%. O=C(NC[C@H]1C[C@@H]2CCN1C[C@@H]2CN1CCOCC1)Nc1ccsc1 read 1.064%. CC(C)COCCNC(=O)NC1CCCN(c2cnn(C)c2)C1 (centres undefined) read 6.434%.

With COc1ccc(NC(=O)Cn2nc(C)c(C)cc2=O)c(OC)c1 the screen gave 3.395%. Result for O=C(NCc1ccccc1)[C@H]1C[C@@H]2CN(S(=O)(=O)C3CC3)C[C@H]1O2 was 1.781%. With COc1cc(F)ccc1C(C(=O)O)N(C)CCN1CCCC1 (centres undefined) the screen gave 7.399%. For CCN1C[C@H]2CCN(C(=O)C3CCCO3)CC[C@H]2S1(=O)=O (some centres undefined) the result was 14.75%.

CN1CCN(C[C@H]2CN3CC[C@H]2C[C@@H]3CNC(=O)c2ccco2)CC1 read 5.498%. COC(=O)CC1CN(Cc2ccn(-c3ccc(F)cc3)n2)CCO1 (centres undefined) gave 4.781%. COCc1n[nH]c2c1CN(Cc1ccccn1)C2 gave 6.861%. Result for CC(C)c1nc(NS(=O)(=O)c2ccccc2Cl)no1 was 4.264%.

With CS(=O)(=O)N1CC2(CCCN(C3COC3)C2)Cc2ccccc21 (centres undefined) the screen gave -2.148%. For CCN(CC)C(=O)[C@@H]1C[C@@H](NC(=O)c2ccoc2)CN1C the result was 0.5701%. With CCn1cc(Br)c(C(=O)NCc2ccccc2)n1 the screen gave 1.984%. With c1cc(CNCc2cccc3c2OCCO3)cc(Cn2cncn2)c1 the screen gave 9.125%.

Result for CSC(C)C(=O)N(C)CC(=O)Nc1ccc(Br)cn1 (centres undefined) was 0.3152%. With CN1C(=O)CCC12CCN(S(=O)(=O)c1ccccc1)CC2 the screen gave 5.162%. Result for CN(Cc1ccon1)C(=O)C1CC(=O)N(Cc2cccnc2)C1 (centres undefined) was 5.061%. With Fc1ccccc1Cc1noc(CN2CCC(N3CCSCC3)CC2)n1 the screen gave 2.259%.

Result for C[C@@H]1CN(C(=O)NC2CC2)C[C@]12CCN(c1ccsc1)C2=O was 6.304%.

The first 3 entries again:

SMILES,percent effect
CCn1c(N)nc2cc(C(=O)N3CCN(c4nccs4)CC3)cnc21,7.411
O=C(NCCn1cccn1)c1nnc2ccccc2n1,-0.3014
Cn1cc(N2CCC3(CCN(C(=O)c4cccn4C)C3)C2=O)cn1 (centres undefined),-1.381